Measured values taken from paper PMC10003451, “Phosphorylated Peptide Derived from the Myosin Phosphatase Target Subunit Is a Novel Inhibitor of Protein Phosphatase-1” (International Journal of Molecular Sciences, 2023).
These are yes or no findings as the source states them, for the method shown. Some binding calls cover weakened binding; strength is not graded here.

Chains of the proteins cited; added tags and fusions are not shown.
UniProt P62136: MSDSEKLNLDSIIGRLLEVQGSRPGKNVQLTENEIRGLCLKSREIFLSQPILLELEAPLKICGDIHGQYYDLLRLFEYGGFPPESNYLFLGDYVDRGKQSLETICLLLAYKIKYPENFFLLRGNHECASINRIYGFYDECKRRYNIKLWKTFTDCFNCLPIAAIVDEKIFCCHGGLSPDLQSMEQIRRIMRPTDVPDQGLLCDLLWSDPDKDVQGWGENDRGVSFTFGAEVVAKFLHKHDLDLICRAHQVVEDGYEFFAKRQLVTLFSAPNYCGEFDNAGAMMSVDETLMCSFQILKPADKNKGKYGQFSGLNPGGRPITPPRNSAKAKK

Molecular target: recombinant protein phosphatase-1 catalytic subunit alpha (PP1cα) (UniProt P62136)
Assay: saturation transfer difference NMR; 1.3-1.5 mM peptide with 13.3-14.4 µM rPP1cα or 14-15 µM rPP1cδ in D2O, 10 mM imidazole pH 6.5, 150 mM NaCl; 293 K; irradiation of PP1c resonances at -1.3 ppm; qualitative; both purified

binding: binds
B1: P-Thr696-MYPT1^690−701 (phosphorylated peptide of the inhibitory region of myosin phosphatase target subunit-1) (peptide)
peptide: RQSRRSTQGVTL
modifications: phosphothreonine at 696 (pT696)
